Chains of the proteins cited; added tags and fusions are not shown.
UniProt Q9GZV5: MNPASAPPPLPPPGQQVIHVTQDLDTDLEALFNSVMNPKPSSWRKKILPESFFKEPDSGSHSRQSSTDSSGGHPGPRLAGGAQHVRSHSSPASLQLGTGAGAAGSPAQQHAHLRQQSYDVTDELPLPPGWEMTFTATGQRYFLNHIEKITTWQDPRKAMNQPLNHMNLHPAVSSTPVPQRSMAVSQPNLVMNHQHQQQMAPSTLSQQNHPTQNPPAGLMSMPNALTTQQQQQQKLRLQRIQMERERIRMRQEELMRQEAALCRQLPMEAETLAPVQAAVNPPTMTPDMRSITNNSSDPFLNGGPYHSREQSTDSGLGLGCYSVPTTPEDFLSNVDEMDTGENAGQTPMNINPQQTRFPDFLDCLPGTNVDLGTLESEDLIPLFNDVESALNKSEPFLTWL
UniProt D3ZP96: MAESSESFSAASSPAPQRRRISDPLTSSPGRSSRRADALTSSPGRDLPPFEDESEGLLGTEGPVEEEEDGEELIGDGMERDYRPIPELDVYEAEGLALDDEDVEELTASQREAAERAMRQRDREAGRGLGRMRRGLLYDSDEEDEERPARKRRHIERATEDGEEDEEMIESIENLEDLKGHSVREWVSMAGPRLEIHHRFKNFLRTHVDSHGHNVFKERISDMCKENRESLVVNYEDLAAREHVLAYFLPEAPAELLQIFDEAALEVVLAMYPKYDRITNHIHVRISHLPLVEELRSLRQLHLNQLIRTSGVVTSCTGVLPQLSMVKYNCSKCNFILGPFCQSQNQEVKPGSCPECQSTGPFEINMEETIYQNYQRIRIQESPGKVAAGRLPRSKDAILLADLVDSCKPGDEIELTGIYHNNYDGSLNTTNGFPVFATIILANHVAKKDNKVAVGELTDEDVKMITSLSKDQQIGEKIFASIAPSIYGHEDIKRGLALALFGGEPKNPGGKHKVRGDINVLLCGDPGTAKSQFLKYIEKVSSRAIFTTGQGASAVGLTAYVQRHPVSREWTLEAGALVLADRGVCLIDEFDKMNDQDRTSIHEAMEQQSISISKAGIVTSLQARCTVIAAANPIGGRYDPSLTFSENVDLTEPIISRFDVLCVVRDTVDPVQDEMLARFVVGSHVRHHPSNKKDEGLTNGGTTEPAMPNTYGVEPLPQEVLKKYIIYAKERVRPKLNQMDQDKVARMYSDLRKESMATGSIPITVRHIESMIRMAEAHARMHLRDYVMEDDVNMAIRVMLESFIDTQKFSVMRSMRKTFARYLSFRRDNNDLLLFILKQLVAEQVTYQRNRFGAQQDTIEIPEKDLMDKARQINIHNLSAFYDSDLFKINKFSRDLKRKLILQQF
UniProt Q08943: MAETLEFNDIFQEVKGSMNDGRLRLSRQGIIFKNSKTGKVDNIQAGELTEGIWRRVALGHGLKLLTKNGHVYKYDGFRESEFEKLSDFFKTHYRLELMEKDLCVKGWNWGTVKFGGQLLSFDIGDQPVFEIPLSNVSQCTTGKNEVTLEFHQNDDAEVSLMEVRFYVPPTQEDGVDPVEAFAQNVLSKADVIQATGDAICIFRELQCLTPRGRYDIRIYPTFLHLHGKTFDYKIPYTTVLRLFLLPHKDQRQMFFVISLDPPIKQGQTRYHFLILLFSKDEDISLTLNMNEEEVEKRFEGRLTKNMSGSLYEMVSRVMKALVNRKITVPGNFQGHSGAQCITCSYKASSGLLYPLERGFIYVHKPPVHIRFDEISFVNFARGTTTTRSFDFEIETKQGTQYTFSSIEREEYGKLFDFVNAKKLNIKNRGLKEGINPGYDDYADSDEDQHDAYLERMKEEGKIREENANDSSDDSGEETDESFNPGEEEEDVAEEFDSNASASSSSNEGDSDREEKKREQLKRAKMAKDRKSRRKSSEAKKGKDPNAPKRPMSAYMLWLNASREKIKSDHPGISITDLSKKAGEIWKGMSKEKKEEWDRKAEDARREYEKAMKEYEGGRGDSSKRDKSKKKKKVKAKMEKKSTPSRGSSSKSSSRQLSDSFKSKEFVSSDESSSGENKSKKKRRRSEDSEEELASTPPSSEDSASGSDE
UniProt Q9R190: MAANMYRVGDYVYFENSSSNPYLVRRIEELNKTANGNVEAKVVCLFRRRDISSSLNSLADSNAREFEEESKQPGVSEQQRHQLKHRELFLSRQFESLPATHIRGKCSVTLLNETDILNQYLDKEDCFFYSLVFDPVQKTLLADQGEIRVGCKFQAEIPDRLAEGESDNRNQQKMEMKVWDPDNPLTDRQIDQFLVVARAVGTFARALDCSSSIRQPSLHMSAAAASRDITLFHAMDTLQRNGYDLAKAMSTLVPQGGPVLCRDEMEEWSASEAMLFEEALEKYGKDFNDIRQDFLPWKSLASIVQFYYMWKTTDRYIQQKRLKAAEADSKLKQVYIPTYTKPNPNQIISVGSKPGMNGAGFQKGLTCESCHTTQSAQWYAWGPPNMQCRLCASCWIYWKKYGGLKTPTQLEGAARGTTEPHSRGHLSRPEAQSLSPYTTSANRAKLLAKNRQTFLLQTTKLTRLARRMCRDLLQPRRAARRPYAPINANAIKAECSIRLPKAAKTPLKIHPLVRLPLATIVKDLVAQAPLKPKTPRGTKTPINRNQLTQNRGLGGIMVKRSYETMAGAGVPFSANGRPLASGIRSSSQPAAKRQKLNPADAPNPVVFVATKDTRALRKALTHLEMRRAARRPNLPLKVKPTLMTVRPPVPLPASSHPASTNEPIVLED
UniProt A2BH40: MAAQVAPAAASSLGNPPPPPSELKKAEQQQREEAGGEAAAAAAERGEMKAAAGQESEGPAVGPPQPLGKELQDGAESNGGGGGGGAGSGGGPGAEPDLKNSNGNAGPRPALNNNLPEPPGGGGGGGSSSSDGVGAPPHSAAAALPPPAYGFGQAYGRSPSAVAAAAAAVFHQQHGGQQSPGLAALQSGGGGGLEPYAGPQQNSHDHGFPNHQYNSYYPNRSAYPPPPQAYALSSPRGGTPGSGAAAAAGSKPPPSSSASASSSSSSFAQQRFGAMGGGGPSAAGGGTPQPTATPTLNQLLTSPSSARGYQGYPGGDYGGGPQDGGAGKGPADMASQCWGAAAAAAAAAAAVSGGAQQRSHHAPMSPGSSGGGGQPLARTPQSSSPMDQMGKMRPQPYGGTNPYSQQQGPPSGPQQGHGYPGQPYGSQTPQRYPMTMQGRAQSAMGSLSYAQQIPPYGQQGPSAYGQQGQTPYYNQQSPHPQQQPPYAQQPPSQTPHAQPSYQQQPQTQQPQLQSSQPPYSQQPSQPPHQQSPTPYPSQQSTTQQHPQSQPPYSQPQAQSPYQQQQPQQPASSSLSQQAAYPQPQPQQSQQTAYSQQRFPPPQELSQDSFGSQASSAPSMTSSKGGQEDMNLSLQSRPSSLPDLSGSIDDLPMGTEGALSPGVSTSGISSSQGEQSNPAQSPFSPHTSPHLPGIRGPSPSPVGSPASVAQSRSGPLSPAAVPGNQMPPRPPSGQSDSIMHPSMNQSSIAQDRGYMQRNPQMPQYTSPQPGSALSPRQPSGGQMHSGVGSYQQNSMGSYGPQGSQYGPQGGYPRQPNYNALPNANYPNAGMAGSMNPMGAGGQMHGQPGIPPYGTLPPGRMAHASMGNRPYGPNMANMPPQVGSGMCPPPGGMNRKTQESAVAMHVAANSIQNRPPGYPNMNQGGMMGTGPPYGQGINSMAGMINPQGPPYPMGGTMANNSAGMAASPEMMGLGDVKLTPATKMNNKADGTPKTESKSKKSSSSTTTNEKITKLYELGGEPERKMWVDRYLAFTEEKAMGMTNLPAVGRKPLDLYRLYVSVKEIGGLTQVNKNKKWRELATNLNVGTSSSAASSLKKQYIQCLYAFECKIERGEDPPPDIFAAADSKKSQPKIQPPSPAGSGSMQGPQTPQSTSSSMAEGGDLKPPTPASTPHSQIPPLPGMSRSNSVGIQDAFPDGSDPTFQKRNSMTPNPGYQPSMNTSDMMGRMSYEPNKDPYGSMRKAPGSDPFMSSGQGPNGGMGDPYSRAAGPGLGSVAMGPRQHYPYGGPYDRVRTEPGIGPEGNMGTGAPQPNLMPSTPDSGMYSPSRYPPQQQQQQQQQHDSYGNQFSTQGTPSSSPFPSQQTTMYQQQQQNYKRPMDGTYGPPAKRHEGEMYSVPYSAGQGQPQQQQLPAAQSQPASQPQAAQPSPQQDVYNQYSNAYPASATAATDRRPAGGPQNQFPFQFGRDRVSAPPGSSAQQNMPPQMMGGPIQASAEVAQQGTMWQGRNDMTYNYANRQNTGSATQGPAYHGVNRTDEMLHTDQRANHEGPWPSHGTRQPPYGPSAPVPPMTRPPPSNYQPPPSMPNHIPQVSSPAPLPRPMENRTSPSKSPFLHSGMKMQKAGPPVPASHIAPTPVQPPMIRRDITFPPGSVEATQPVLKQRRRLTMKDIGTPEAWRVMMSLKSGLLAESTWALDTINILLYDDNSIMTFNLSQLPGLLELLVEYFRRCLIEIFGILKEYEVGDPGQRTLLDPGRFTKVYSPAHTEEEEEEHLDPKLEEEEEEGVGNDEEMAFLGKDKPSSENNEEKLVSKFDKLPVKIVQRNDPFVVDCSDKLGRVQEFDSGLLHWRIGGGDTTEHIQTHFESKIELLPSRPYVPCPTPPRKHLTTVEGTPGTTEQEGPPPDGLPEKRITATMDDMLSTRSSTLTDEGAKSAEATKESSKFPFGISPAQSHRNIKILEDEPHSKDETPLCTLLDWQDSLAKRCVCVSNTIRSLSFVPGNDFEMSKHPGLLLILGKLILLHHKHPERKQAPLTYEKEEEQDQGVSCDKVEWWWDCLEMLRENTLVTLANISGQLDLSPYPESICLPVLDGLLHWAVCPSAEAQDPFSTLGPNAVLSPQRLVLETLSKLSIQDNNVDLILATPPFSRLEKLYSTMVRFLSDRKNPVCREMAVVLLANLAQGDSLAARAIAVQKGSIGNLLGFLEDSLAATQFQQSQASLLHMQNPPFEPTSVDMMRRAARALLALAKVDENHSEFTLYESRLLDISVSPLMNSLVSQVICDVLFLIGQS
UniProt Q3TKT4: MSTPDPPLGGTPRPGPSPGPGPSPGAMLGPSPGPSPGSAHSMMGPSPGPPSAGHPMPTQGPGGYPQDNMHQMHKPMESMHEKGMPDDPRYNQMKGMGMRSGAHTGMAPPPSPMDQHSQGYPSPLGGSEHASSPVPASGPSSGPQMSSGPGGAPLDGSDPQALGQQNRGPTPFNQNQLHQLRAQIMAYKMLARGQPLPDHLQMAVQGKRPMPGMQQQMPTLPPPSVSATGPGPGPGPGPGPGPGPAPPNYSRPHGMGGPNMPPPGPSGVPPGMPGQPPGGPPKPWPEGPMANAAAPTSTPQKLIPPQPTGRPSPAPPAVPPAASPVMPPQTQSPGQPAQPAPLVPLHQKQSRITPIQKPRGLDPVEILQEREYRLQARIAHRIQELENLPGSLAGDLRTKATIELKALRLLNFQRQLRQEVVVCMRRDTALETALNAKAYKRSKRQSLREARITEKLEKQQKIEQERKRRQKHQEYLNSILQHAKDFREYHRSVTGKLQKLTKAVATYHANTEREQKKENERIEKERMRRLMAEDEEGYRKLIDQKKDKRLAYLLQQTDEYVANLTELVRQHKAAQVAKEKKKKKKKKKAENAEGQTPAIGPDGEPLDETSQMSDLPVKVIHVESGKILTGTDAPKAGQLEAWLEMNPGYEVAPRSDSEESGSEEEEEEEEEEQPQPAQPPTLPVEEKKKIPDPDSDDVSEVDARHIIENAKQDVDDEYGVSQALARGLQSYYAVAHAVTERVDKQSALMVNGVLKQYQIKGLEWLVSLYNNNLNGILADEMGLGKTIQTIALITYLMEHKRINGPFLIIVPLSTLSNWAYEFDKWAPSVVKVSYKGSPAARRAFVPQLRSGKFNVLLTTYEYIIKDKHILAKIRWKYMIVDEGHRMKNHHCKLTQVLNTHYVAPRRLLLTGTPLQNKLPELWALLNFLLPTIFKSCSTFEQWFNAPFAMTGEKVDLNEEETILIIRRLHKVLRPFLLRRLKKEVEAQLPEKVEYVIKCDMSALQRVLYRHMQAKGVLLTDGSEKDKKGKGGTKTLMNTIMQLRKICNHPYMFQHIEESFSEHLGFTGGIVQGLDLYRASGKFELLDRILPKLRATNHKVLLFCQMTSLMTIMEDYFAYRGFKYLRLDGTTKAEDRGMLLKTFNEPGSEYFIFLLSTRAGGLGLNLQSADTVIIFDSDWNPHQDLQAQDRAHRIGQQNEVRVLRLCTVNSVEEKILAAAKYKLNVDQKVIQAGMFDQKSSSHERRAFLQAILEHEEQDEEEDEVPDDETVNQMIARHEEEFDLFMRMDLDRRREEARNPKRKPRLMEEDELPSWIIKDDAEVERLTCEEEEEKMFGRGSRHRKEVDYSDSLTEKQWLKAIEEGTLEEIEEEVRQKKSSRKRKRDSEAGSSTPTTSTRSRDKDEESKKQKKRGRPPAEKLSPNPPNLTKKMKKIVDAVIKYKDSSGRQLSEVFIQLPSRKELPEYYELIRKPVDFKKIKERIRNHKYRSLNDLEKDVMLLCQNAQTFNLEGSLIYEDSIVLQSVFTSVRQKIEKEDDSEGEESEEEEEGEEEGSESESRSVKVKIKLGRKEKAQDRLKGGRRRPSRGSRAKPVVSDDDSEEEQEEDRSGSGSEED

In paper PMC11928053:

target: EYFP–TAZ (UniProt Q9GZV5); test: affinity purification with mass spectrometry; EYFP-TAZ from transfected HEK293T lysate immobilised on GFP-Trap magnetic agarose beads, washed, incubated overnight at 4°C with 1 mg of neonatal rat cardiomyocyte extract; hits at least threefold enriched over the GFP control; LC-MS/MS; only the target purified

| Molecule | binding |
| --- | --- |
| MCM2 (from UniProt D3ZP96 1-905) | binds |
| SMC1A (protein, UniProt Q9Z1M9 1-1233) MGFLKLIEIENFKSYKGRQIIGPFQRFTAIIGPNGSGKSNLMDAISFVLGEKTSNLRVKTLRDLIHGAPVGKPAANRAFVSMVYSEEGAEDRTFARVIVGGSSEYKINNKVVQLHEYSEELEKLGILIKARNFLVFQGAVESIAMKNPKERTALFEEISRSGELAQEYDKRKKEMVKAEEDTQFNYHRKKNIAAERKEAKQEKEEADRYQALKDEVVRAQVQLQLFKLYHNEVEIEKLNKELASKNKEIEKDKKRMDKVEDELKEKKKELGKMMREQQQIEKEIKEKDSELNQKRPQYIKAKENTSHKIKKLEAAKKSLQNRQKHYKKRKGDMDELEKEMLSVEKARQEFEERMEEESQSQGRDLTLEENQVKKYHRLKEEASKRAATLAQELEKFNRDQKADQDRLDLEERKKVETEAKIKQKLREIEENQKRIEKLEEYITTSKQSLEEQKKLEGELTEEVEMAKRRIDEINKELNQVMEQLGDARIDRQESSRQQRKAEIMESIKRLYPGSVYGRLIDLCQPTQKKYQIAVTKVLGKNMDAIIVDSEKTGRDCIQYIKEQRGEPETFLPLDYLEVKPTDEKLRELKGAKLVIDVIRYEPPHIKKALQYACGNALVCDNVEDARRIAFGGHQRHKTVALDGTLFQKSGVISGGASDLKAKARRWDEKAVDKLKEKKERLTEELKEQMKAKRKEAELRQVQSQAHGLQMRLKYSQSDLEQTKTRHLALNLQEKSKLESELANFGPRINDIKRIIQSREREMKDLKEKMNQVEDEVFEEFCREIGVRNIREFEEEKVKRQNEIAKKRLEFENQKTRLGIQLDFEKNQLKEDQDKVHMWEQTVKKDENEIEKLKKEEQRHMKIIDETMAQLQDLKNQHLAKKSEVNDKNHEMEEIRKKLGGANKEMTHLQKEVTAIETKLEQKRSDRHNLLQACKMQDIKLPLSKGTMDDISQEEGGSQGEESVSGSQRTSSIYAREALIEIDYGDLCEDLKDAQAEEEIKQEMNTLQQKLNEQQSVLQRIAAPNMKAMEKLESVRDKFQETSDEFEAARKRAKKAKQAFEQIKKERFDRFNACFESVATNIDEIYKALSRNSSAQAFLGPENPEEPYLDGINYNCVAPGKRFRPMDNLSGGEKTVAALALLFAIHSYKPAPFFVLDEIDAALDNTNIGKVANYIKEQSTCNFQAIVISLKEEFYTKAESLIGVYPEQGDCVISKVLTFDLTKYPDANPNPNEQ | binds |
| MCM3 (protein, UniProt D3ZFP4 1-813) MAGTVVLDDVELREAQRDYLDFLDDEEDQGIYQNKVRELISDNQYRLIVNVNDLRRKNEKRANRLLNNAFEELVAFQRALKDFVASIDATYAKQYEEFYIGLEGSFGSKHVSPRTLTSCFLSCVVCVEGIVTKCSLVRPKVVRSVHYCPATKKTIERRYSDLTTLVAFPSSSVYPTKDEENNPLETEYGLSVYKDHQTITIQEMPEKAPAGQLPRSVDVILDDDLVDKVKPGDRIQVVGTYRCLPGKKGGYTSGTFRTVLIACNVKQMSKDIQPAFSADDIAKIKKFSKTRSKDVFEQLARSLAPSIHGHDYVKKAILCLLLGGVERELENGSHIRGDINILLIGDPSVAKSQLLRYVLCTAPRAIPTTGRGSSGVGLTAAVTTDQETGERRLEAGAMVLADRGVVCIDEFDKMSDMDRTAIHEVMEQGRVTIAKAGIHARLNARCSVLAAANPVYGRYDQYKTPMENIGLQDSLLSRFDLLFIMLDQMDPEQDREISDHVLRMHQYRAPGEQDGDALPLGSSVDILATDDPDFTQDDQQDTRIYEKHDNLLHGSKKKREKMVSAAFMKKYIHVAKIIKPTLTQESAAYIAEEYSRLRSQDSMSSDTARTSPVTARTLETLIRLATAHAKARMSKTVDLQDAEEAVELVQYAYFKKVLEKEKKRKKPSEDESDLEDEEEKSQEEDTEQTRKRRKTQAKDGESYDPYDFSEAEREMPQVHTPKTDDSQEKTDESQETQESQKVELSESRLKAFKAALLEVFQEAHAQSVGMIHLTESINRNKEEPFSSEEIQASLSRMQDDNQVMVSEGIVFLI | binds |
| MCM4 (protein, UniProt G3V681 1-862) MSSPASTPSRRSSRRGRVTPTQSLRSEESRSSPSGRRRGEDSSTGELLPMPTSPGADLQSPAAQNALFSSPPQMHSSAIPLEFDVSSPLTYGTPSSRVEGTPRSGVRGTPMRQRPDLGSARKGLQVDLQSDGAAAEDTVASEQSLGQKLVIWGTDVNVATCKEHFQRFLQCFTDPLAKEEENVGIDITQPLYMQRLGEINITGEPFLNVNCEHIKSFGKNLYRQLISYPQEVIPTFDMAVNEIFFDRYPDSILEHQIQVRPFNALKTKSMRNLNPEDIDQLITISGMVIRTSQLIPEMQEAFFQCQVCAHTTRVEMDRGRIAEPCTCVHCHTTHSMALIHNRSLFSDKQMIKLQESPEDMPAGQTPHTVVLFAHNDLVDKVQPGDRVNVTGIYRAVPIRVNPRVSNVKSVYKTHIDVIHYRKTDAKRLHGLDEEAEQKLFSEKRVKLLKELSRKPDIYERLASALAPSIYEHEDIKKGILLQLFGGTRKDFSHTGRGKFRAEINILLCGDPGTSKSQLLQYVYNLVPRGQYTSGKGSSAVGLTAYVMKDPETRQLVLQTGALVLSDNGICCIDEFDKMNESTRSVLHEVMEQQTLSIAKAGIICQLNARTSVLAAANPIESQWNPKKTTIENIQLPHTLLSRFDLIFLMLDPQDEAYDRRLAHHLVSLYYQSEEQVEQEFLDMAVLKDYIAYAHSTIMPRLSEEASQALIEAYVNMRKIGSSRGMVSAYPRQLESLIRLAEAHAKVRFSDKVEAIDVEEAKRLHREALKQSATDPRTGIVDISILTTGMSATSRKRKEELAEALRKLILSKGKTPALKYQQLFEDIRGQSDTAITKDMFEEALRALADDDFLTVTGKTVRLL | binds |

target: EYFP–TAZ (UniProt Q9GZV5); test: affinity purification with mass spectrometry; EYFP-TAZ from transfected HEK293T lysate immobilised on GFP-Trap magnetic agarose beads, washed (RIPA, NP-40 lysis buffer), incubated overnight at 4°C with 1 mg of prey extract (nuclear-enriched C2C12 or neonatal rat cardiomyocyte); the text does not tell which of the two datasets holds each hit; hits at least threefold enriched over the GFP control; LC-MS/MS; only the target purified

| binding | Molecule |
| --- | --- |
| binds | CHD4 (from UniProt Q6PDQ2 1-1915) |
| binds | FACT complex subunit SSRP1 (from UniProt Q08943 1-708) |
| binds | HDAC1 (from UniProt O09106 1-482) |
| binds | MTA2 (endogenous) (from UniProt Q9R190 1-668) |
| binds | SCRIB (from UniProt Q80U72 1-1665) |
| binds | SMARCC1 (from UniProt P97496 1-1104) |
| binds | TLE3 (endogenous) (from UniProt Q08122 1-772) |
| binds | LATS1 kinase (enzyme, UniProt Q8BYR2 1-1129) MKRGEKPEGYRQMRPKTFPASNYPGSSRQMLQEIRESLRNLSKPSDASKAEHNLNKMSTEDPRQVRNPPKFGTHHKALQEIRNSLLPFANETSSSRSPSEVNPQMFQDLQAAGFDEDMVIQALQKTNNRSIEAAVEFISKMSYQDPRREQMSAAAARPINATMKPGNVQHSINRKQSWKGSKESLVPQRHGPSLGENVVYRSESPNSQADVGRPLSGSGIAAFAQAHPSNGQRVNPPPPPQVRSVTPPPPPRGQTPPPRGTTPPPPSWEPSSQTKRYSGNMEYVISRISPVPPGAWQEGYPPPPLTTSPMNPPSQAQRAISSVPVGRQPIIMQSTSKFNFTPGRPGVQNGGGQSDFIVHQNVPTGSVTRQPPPPYPLTPANGQSPSALQTGASAAPPSFANGNVPQSMMVPNRNSHNMELYNINVPGLQTAWPQSSSAPAQSSPSGGHEIPTWQPNIPVRSNSFNNPLGSRASHSANSQPSATTVTAITPAPIQQPVKSMRVLKPELQTALAPTHPSWMPQPVQTVQPTPFSEGTASSVPVIPPVAEAPSYQGPPPPYPKHLLHQNPSVPPYESVSKPCKDEQPSLPKEDDSEKSADSGDSGDKEKKQITTSPITVRKNKKDEERRESRIQSYSPQAFKFFMEQHVENVLKSHQQRLHRKKQLENEMMRVGLSQDAQDQMRKMLCQKESNYIRLKRAKMDKSMFVKIKTLGIGAFGEVCLARKVDTKALYATKTLRKKDVLLRNQVAHVKAERDILAEADNEWVVRLYYSFQDKDNLYFVMDYIPGGDMMSLLIRMGIFPENLARFYIAELTCAVESVHKMGFIHRDIKPDNILIDRDGHIKLTDFGLCTGFRWTHDSKYYQSGDHPRQDSMDFSNEWGDPSNCRCGDRLKPLERRAARQHQRCLAHSLVGTPNYIAPEVLLRTGYTQLCDWWSVGVILFEMLVGQPPFLAQTPLETQMKVINWQTSLHIPPQAKLSPEASDLIIKLCRGPEDRLGKNGADEIKAHPFFKTIDFSSDLRQQSASYIPKITHPTDTSNFDPVDPDKLWSDGSEEENISDTLNGWYKNGKHPEHAFYEFTFRRFFDDNGYPYNYPKPIEYEYIHSQGSEQQSDEDDQHTSSDGNNRDLVYV |

Second part, the molecule before the results:

| Molecule | binding |
| --- | --- |
| ARID1A (from UniProt A2BH40 1-2283) | binds |
| MPDZ (from UniProt Q8VBX6 1-2055) | binds |
| SMARCA4 (from UniProt Q3TKT4 1-1613) | binds |

Results are given in words; binding and its absence hold for the method and conditions named. Binding seen in cells or lysates may run through a third protein. Here binding means that the protein was enriched with, or labelled near, the bait; the list need not be complete.
